Values quoted from earlier work as cited in US12364668B2, “Treatment of opioid use disorder, opioid withdrawal symptoms, and chronic pain” (THE REGENTS OF THE UNIVERSITY OF CALIFORNIA, priority 2017, dated 2025).

Conditions: Pisanti et al. 2017; cited from earlier work

Compound: C=C(C)[C@@H]1CCC(C)=C[C@H]1c1c(O)cc(CCCCC)cc1O [CBD, cannabidiol]
- Bioavailability after oral administration: 13-19%
